Primary screen of a compound library

Measurements from “University of Dundee, Small-Polar-MMV Screening Library” (2021), ChEMBL document CHEMBL3988442.

Results are given as percent effect. The controls that fix the scale are not given in the record; negative values are as filed. This is an unselected part of the compounds tested. Two or more numbers in one place are separate tests of the same structure; such repeats can differ widely.

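Whole-cell growth test on Mycobacterium tuberculosis, read after 3 days in glucose-containing 7H9 medium; the read-out is not stated. Compounds at 50 µM. Direction is inferred from retests: higher values go with more growth inhibition. Of about 69,000 compounds tested this way, about 760 (1.1%) reached 50% or more in at least one test.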

compound,effect
[H][C@@]12C[C@H](c3noc(C)n3)O[C@@]1([H])CCN(C(=O)c1cc(C)c(C)s1)C2,25.33% & 10.86%
CN(Cc1cccnc1)C1CC2(CCN(C(=O)c3cnccn3)CC2)C1,11.39%
Cn1ncc2c1CCCC2NCc1cccc(OC2CCCC2)c1 (centres undefined),5.327%
CC(C)(C)NC(=O)C1CCCCN1Cc1nccn1CC(F)(F)F (centres undefined),4.207% & -12.35%
Cc1cc(C2CCC2)nc(N2CC(n3cccn3)C2)n1,36.19%
O=C(NCCNC(=O)c1scnc1Cl)c1ccoc1,-32.45%
Cc1nnc(CCNC2CCN(c3ncnc4c(C)csc34)CC2)s1,-16.11%
CC1CCc2nc(O)c(C(=O)NCc3ccncc3)cc2C1 (centres undefined),-29.53%
O=C(O)C(F)(F)F.O=C1CCCN1CC1CN(CC2CCOCC2)Cc2nccn2C1 (centres undefined),-21.71% & -1.62%
Cc1noc(C)c1CC(=O)N1CCN(Cc2cscn2)CC1,-19.21%
Cn1cnc(S(=O)(=O)N2CC3(CCN(Cc4ccncc4)C3)C2)c1.O=C(O)C(F)(F)F.O=C(O)C(F)(F)F.O=C(O)C(F)(F)F,-7.621%
CCN1CCc2[nH]cnc2C12CCN(c1ccc(Cl)c(C(=O)O)n1)CC2,-20.38%
CC(C)c1nc2c(n1C)CCN(Cc1cccc(OCC(N)=O)c1)C2,-43.54% & -1.674%
O=C(c1cnco1)N1CCC(Cc2cccc3ncccc23)CC1,-26.78%
O=C(c1cnc(-c2cccs2)s1)N1CCCC(n2ccnc2)C1 (centres undefined),-9.899%
Cc1cc(NC(=O)CN2CCc3cncnc3C2)on1,21.13%
COc1ccc(C(=O)N2CCN(C(=O)c3csc(C(C)C)n3)CC2)cc1,-4.203% & -1.039%
Cc1ccsc1CNCC1CCCN1c1cccnn1 (centres undefined),-46.55%
O=C(CN1CCCc2cc(F)cc(F)c21)Nc1ccc(Br)cn1,29.85%
CC(=O)N1CCC(N2CC[C@H](c3nc4cc(C)ccc4o3)C2)CC1,-3.023% & 14.98%
CCN1CCN(c2nc(C(C)C)nc3c(C)nn(CC)c23)CC1,-38.73%
COCCS(=O)(=O)NC(C)c1cccc(-n2cccn2)c1 (centres undefined),-3.461% & 12.13%
Cc1ccc(CN(C)c2cc(N3CCCC3CO)ncn2)s1 (centres undefined),15.13%
CC(C)c1noc(CCC(=O)N2CCN(Cc3ccncc3)CC2)n1,0.3905% & -22.85%
CCOc1ccc(C(=O)Nc2ccn(CC)n2)cc1,-8.845%
CN(Cc1nccs1)C1CCN(c2cccc(-c3cscn3)c2)CC1,18.08%
CCn1c(C2CCCN(Cc3cc(F)ccc3OC)C2)nn(C)c1=O (centres undefined),-3.386% & -1.141%
Cc1cc(C2CCCN(C(=O)CN3CCN(C)CC3)C2)n[nH]1 (centres undefined),-22.72%
COc1ccc2c(c1)CN(Cc1ccco1)C(=O)CCN2,16.08%
CCN1CC2(CC1=O)CN(Cc1ccc(C)o1)CCN(C(=O)C(C)C)C2.O=C(O)C(F)(F)F (centres undefined),12.95%
Cc1ocnc1C(=O)N[C@H]1CN(CC2CCC2)C[C@@H]1C(C)C,11.04% & 0.4638%
CN(CCc1ccccn1)C(=O)Nc1cc(C(F)(F)F)c[nH]c1=O,10.86%
CC(CS(C)(=O)=O)NC(=O)N1CC2(CCCC2)c2ccccc21 (centres undefined),28.02%
COCCCN(Cc1ccccc1Cl)C1CCS(=O)(=O)C1 (centres undefined),41.02%
[H][C@@]12CCN(C(=O)c3cccs3)C[C@]1([H])OCCNC2=O,12.11%
Cn1nc(C(C)(C)C)cc1NC(=O)Cn1ccnc1,-15.95%
Fc1ccc(C2(NCc3noc(C4CC4)n3)CCC2)cc1,16.1%
COCc1noc(-c2ccc(N3CCCC3c3ccc(F)cc3)nc2)n1 (centres undefined),-5.276%
CCOCCN1CCN(c2ccc(C#N)cn2)CC1,2.748%
O=C(NCc1cnc2n1CCN(Cc1ccoc1)C2)c1ccno1.O=C(O)C(F)(F)F,-20.58%
CO[C@H]1COCCN(C(=O)c2ccc(F)cc2)C1,-2.529% & 3.301%
CC(=O)N1CCCC(c2ccc(CO)c(-c3c(C)noc3C)n2)C1 (centres undefined),8.393%
[H][C@@]12CCN(Cc3ccco3)[C@]1([H])CC[C@@H](C(=O)NCc1cnc(C)cn1)O2,-1.62% & 3.434%
c1cncc(OCCNC2Cc3ccccc3C2)c1,-13.92%
Cc1ccc(NC(=O)CNc2cccc(C(N)=O)c2C)c(C)c1,-46.42%
COCCCN1CC2(CCCN(c3ncnc4[nH]ccc34)C2)CCC1=O (centres undefined),-21.83%
CCc1cccc2c(CC(=O)N(C)CCN(C)C)c(C)[nH]c12.O=C(O)CC(O)(CC(=O)O)C(=O)O,7.416%
CS(=O)(=O)N1CCC(Nc2ccc(C#N)c(C(F)(F)F)c2)CC1,-9.92%
CCOc1ccnc(N2CCN(C(=O)C(C)(C)C#N)CC2)n1,2.196%
CC(Cn1ccnc1)NC(=O)C1(c2ccccc2)CC1 (centres undefined),-5.024% & -44.32%
COCCn1ccc(NC(=O)Nc2ccccn2)n1,3.836%
Cc1noc(C)c1CN1CCCC2(CCN(C(=O)NC3CC3)C2)C1.O=C(O)C(F)(F)F (centres undefined),-33.04%
COc1cc(C)ccc1OCc1nc(C(=O)N2CCCC2)co1,-4.514%
CN(CCS(=O)(=O)c1cc(Cl)ccc1Cl)CC(=O)Nc1ccc(F)cc1,14.3% & 0.7422%
Cc1cnc(CN(C)C2CCN(Cc3nc4ccccc4n3C)C2)o1 (centres undefined),8.51%
O=C1NCCN1C1CCN(CCOc2ccccc2Cl)CC1,-28.08%
Cc1ccc(OCC(=O)NS(=O)(=O)c2cccnc2)cc1C,-45.21%
Cc1nc(C)n(C2CCCN(C(=O)c3csnn3)C2)n1 (centres undefined),-14.78%
O=C(O)CCCC(=O)N1CCC(c2noc3cc(F)ccc23)CC1,-7.33%
CN(C)C(=O)Cn1cc(C(=O)NCCc2ccc(Cl)cc2Cl)nn1,9.688%
CSc1nc(N)c2c(n1)N=C1COC(O)=C1C2c1cccc(Cl)c1 (centres undefined),45.54%
COCCOc1ncccc1C(=O)N(C)c1nccs1,-1.644% & -20.43%
Nc1nccc(-c2cccc3ccnn23)n1,-21.41%
COc1ccccc1CNc1ncnc2c1NC(=O)CN2,-14.72%
Cc1ccc(C)c(-n2ncc(NC(=O)NC3(C)CCOC3)c2C)c1 (centres undefined),-30.67%
CN(Cc1ccsc1)C(=O)Nc1ccc(N(C)C)nc1,-24.17%
[H][C@]12CCN(C(=O)COC)CC[C@@]1([H])S(=O)(=O)N(Cc1ccccc1)C2,-2.056% & -20.85%
c1cc(CN2CCCC3(CCN(CC4CCCO4)CC3)C2)n[nH]1 (centres undefined),14.25%